Values of other authors in patent US20040002476A1, “Modified fluorinated nucleoside analogues” (priority 2002, published 2004).

Test system: HCV
Conditions: cited from earlier work

NC(=O)c1ncn([C@@H]2O[C@H](CO)[C@@H](O)[C@H]2O)n1 [Ribavirin, 1-β-D-ribofuranosyl-1-1,2,4-triazole-3-carboxamide]
patients with serum amino transferase levels reduced to normal (ribavirin alone): 40% | effect on serum levels of HCV-RNA (used alone): does not lower serum levels of HCV-RNA
